{"source": "paper PMC10163288", "binders": {"B1": {"name": "il2ra_site2_2erj_sap_32_mot_HHH_b2_01204_af2_000000051_0001_19_34_H_._HHH_b2_05327_0001_0000100001_0000001_0_0001 (protein)", "chain": "SSSSSDALREAYELAVEVMRLLAEGDEEEAEELAEEVEKLLRELGSPEAAEMLRELLELQSSSSS"}, "B2": {"name": "il2ra_site1_3nfp_sap_13_mot_0eddeacbb14b769e73e254714f31e2f9_0001_af2_000000052_0001_37_51_H_._HHH_b2_04552_0001_0000400022_0000001_0_0001_af2pred_0001_af2pred_ … (protein)", "chain": "SSSSDEARIVIKLVEEIFEELGLSWRQLRLLTRIAAKLLNEGVSEEEIERILRELAEELLSSSSS"}, "B3": {"name": "il2ra_site1_3nfp_normal_mot_HHH_b1_07095_af2_000000161_0001_1_19_H_._HHH_b2_04861_0001_0000400022_0000001_0 (protein)", "chain": "SSSSSSSIEEFVRRAKELAEELGDPETAEELEELLREAEEKYDPELAEELIKLIAKLESSSSSSS"}, "B4": {"name": "il2ra_site1_2b5i_normal_mot_HHH_b1_06258_af2_000000112_0001_42_56_H_._HHH_b2_07344_af2_0001_0000100001_0000001_1_af2pred_0001_af2pred (protein)", "chain": "SSSSSSDEEADELWNEAARAYRKNPEEAKELLEQALEIAEEAGDEKAAKQIRHMLERLSSSSSSS"}, "B5": {"name": "il2ra_site2_2erj_sap_21_mot_HHH_b1_04496_000000138_0001_40_57_H_._HHH_b1_08401_0001_0000100001_0000001_0_0001 (protein)", "chain": "SSSTREAYELAAEASARLSRLARKGNEEEVERVSEEVIERLEEAGNPEAAKFIRKLTEALLSSSS"}, "B6": {"name": "il2ra_site2_3nfp_sap_18_mot_HHH_b1_05606_000000030_0001_23_39_H_._HHH_b1_04851_0001_0000700025_0000001_0_0001 (protein)", "chain": "SSSSNKEEYVRAALALLKLAAERKDDELFRRHFELIRLMIEDNNDEEAEELLEQLERLFNSSSSS"}, "B7": {"name": "il2ra_site2_2erj_sap_18_mot_678ce523d3521e26f84bf18760a59296_0001_000000113_0001_1_12_H_._HHH_b1_06677_0001_0000500024_0000001_0_0001 (protein)", "chain": "SSSSSHEEEVEELLRRAEKAYEEGDLHEVYRLLVEALAIASKNNDDELAQEVAEHLEKLGSSSSS"}, "B8": {"name": "il2ra_site2_2erj_sap_22_mot_HHH_b2_00907_000000126_0001_1_15_H_._HHH_b1_01434_af2_0001_0000500025_0000001_0_0001 (protein)", "chain": "SALEEAIEQAEKTNDPHLLVTIVRMAAWLAGDPELMKEAEELLERLKRGDPEAKEILEEIVEEIE"}, "B9": {"name": "il2ra_site1_3nfp_sap_17_mot_HHH_b1_07644_af2_000000110_0001_40_57_H_._HEEHE_2706_0001_0000400054_0000001_0_0001_af2pred_0001_af2pred (protein)", "chain": "SSSSTALETVEERAEKAFENNNKYQLEALYKLLREALERRGNPEAEEVLEKVEELLRELQSSSSS"}, "B10": {"name": "il2ra_site2_2erj_normal_mot_HHH_b1_05749_af2_000000010_0001_23_39_H_._HHH_b1_07967_0001_0001100051_0000001_1 (protein)", "chain": "SSSSDWLEELYRLAVELLRLSSRRDEEEFERVYREIERLVEEFNNESAREILEHIRRLFEGSSSS"}, "B11": {"name": "il2ra_site1_2b5i_sap_23_mot_80f7b4c21c45092860cd8bceb88a7fbb_0001_000000060_0001_1_12_H_._2104f07ea29b6e977b17d6fd601e7e07_0001_0001_0000200012_0000001_0_0001_a … (protein)", "chain": "SSSSNLLEEAFELMREANELARRGDDEEAKKVLEEAERLAREAGSRALLKSIESALEQLESSSSS"}, "B12": {"name": "il2ra_site2_2erj_normal_mot_90f6a21de4ed711cb697bb9f61d9c40c_0001_af2_000000135_0001_36_50_H_._HHH_b2_04009_0001_0000600038_0000001_0_af2pred_0001_1_af2pred_swa … (protein)", "chain": "SSSSDEEELEQLVERLAKELGASEEAKEEAEISAKTAKEAGASEEEIELFLRLLLKYLTHRSSSS"}, "B13": {"name": "il2ra_site2_2erj_normal_mot_HHH_b2_01204_af2_000000056_0001_19_34_H_._HHH_b2_03231_af2_0001_0000400032_0000001_1 (protein)", "chain": "SSSSSELEERVEELLEEARKAYEEGDLEEVYRLLVEALHLVSENNDDELQEEIAEFVEELSSSSS"}, "B14": {"name": "il2ra_site1_1z92_sap_16_mot_bc38a9f498cb1f18218c93d69bbf9b39_0001_af2_000000137_0001_15_32_H_._HHH_b2_03878_0001_0000300033_0000001_0_0001_af2pred_dldesign_0_af … (protein)", "chain": "SRVPLFLRAAAEIDPRVARNCRIIYETAKKLGAEDEEILRAIKKYVSRLDPALLERIEARVAELE"}, "B15": {"name": "il2ra_site1_3nfp_normal_mot_HHH_b2_07865_000000253_0001_20_36_H_._HEEHE_3312_0001_0000100025_0000001_0 (protein)", "chain": "DLQEDARHFSKMLARANNVDEVEVHQENGEITVTFSGNDERVERAAEAAEKLAKALGYPLEVETE"}, "B16": {"name": "il2ra_site2_2erj_sap_18_mot_HHH_b1_04373_af2_000000118_0001_18_33_H_._HHH_b1_00424_0001_0000600014_0000001_0_0001_af2pred_0001_1_af2pred_swapped (protein)", "chain": "TELYRILTEVAASIPDPKREEELFEELSRLLAEGNEKEAIELALEVAEELGNPELAELLRKLLEP"}, "B17": {"name": "il2ra_site1_3nfp_sap_14_mot_HHH_b2_06502_000000163_0001_42_55_H_._HHH_b2_00258_0001_0000200029_0000001_0_0001 (protein)", "chain": "SSSSDAAEWVEELAEKAFENNDERQLRILFRLLKRALEKIGDPKAREVLEEVEKLLRELQSSSSS"}, "B18": {"name": "il2ra_site2_3nfp_sap_18_mot_ems_p1-15H-GBL-16H-GBL-14H_0089_0001_0001_0001_af2_000000072_0001_19_33_H_._HHH_b1_08045_af2_0001_0000300008_0000001_0_0001_af2pred_ … (protein)", "chain": "SSSSDLEEEVRELLKEAQELLERGNPEEAEEVVRRAASIAAQAGDHELFMAASRLLEKIHRSSSS"}, "B19": {"name": "il2ra_site2_2erj_normal_mot_HHH_b1_00216_000000142_0001_43_57_H_._HHH_b1_07996_0001_0000300009_0000001_0_af2pred_0001_1_af2pred_swapped (protein)", "chain": "SSSSTREEKEALWALLRVRLAIEEGDPELARRSIELAEKRVEELGDEEVLEQLERLLRELSSSSS"}}, "note": "This is one part of the list."}
{"molecular_target": "il2ra, P01589", "experiment": "yeast display titration"}
{"binder": "B1", "apparent Kd": "inactive: no binding seen"}
{"binder": "B2", "apparent Kd": "inactive: no binding seen"}
{"binder": "B3", "apparent Kd": "inactive: no binding seen"}
{"binder": "B4", "apparent Kd": "inactive: no binding seen"}
{"binder": "B5", "apparent Kd": "inactive: no binding seen"}
{"binder": "B6", "apparent Kd": "inactive: no binding seen"}
{"binder": "B7", "apparent Kd": "inactive: no binding seen"}
{"binder": "B8", "apparent Kd": "inactive: no binding seen"}
{"binder": "B9", "apparent Kd": "inactive: no binding seen"}
{"binder": "B10", "apparent Kd": "inactive: no binding seen"}
{"binder": "B11", "apparent Kd": "inactive: no binding seen"}
{"binder": "B12", "apparent Kd": "inactive: no binding seen"}
{"binder": "B13", "apparent Kd": "inactive: no binding seen"}
{"binder": "B14", "apparent Kd": "inactive: no binding seen"}
{"binder": "B15", "apparent Kd": "inactive: no binding seen"}
{"binder": "B16", "apparent Kd": "inactive: no binding seen"}
{"binder": "B17", "apparent Kd": "inactive: > 826 nM"}
{"binder": "B18", "apparent Kd": "inactive: no binding seen"}
{"binder": "B19", "apparent Kd": "inactive: no binding seen"}
